# According to patent US20040122059A1, “PPAR-gamma ligands in the treatment of asthma and allergies” (The Penn State Research Foundation, priority 2002, published 2004):
# Entries after “also recorded” stand apart in the source; their conditions may differ. For at least one compound, name, drawing or mass did not settle the structure.
# Tested on: murine model of allergic asthma
# Assay: OVA-induced allergic asthma, lung histopathology (asthma severity)
# Type: in vivo, Balb/c mice
# Method: Asthma was induced in the mice as described (Zhang et al. 1999. Immunity 11: 473). Briefly mice were injected intraperitoneally with 10 µg of OVA in Alum twice on day 1 and 5 of asthma induction (primed). On day 10, mice were challenged intranasally with OVA in sterile saline, every day for three days (40 μg total). In an alternative protocol the mice were only challenged intranasally (unprimed) with OVA for three consecutive days. Asthma induction was effective with or without the use of immunization (Alum and OVA injections). Two weeks after asthma induction (the day after the last intranasal challenge) the mice were sacrificed. Two different Ciglitazone treatments were done. […] The mice continued on these diets for the remainder of the study. […] Asthma severity. The lungs were fixed in formalin and sent to the Penn State University Animal Diagnostic Laboratories for sectioning and staining with hematoxylin and eosin. The sections were scored blindly on a scale of 0 to 3 for inflammation and 0-3 for epithelial thickening. […] The inflammation and epithelial scores for each section were added together for a total histopathology score ranging from 0-6. The results are presented as means±SEMs. […] Twenty-four hours after the final intranasal challenge, mice were analyzed for immunological symptoms of allergic asthma. […]
smiles,measurement,setting,value
CC1(COc2ccc(CC3SC(=O)NC3=O)cc2)CCCCC1 (centres unmarked) [Ciglitazone],Mucous production in the lung,"OVA-induced allergic asthma, Ciglitazone treatment",the reduction was not significant; also recorded: significantly reduces
same,"Immunological symptoms in the lung (inflammation, number of inflammatory foci, number of granulomas)","treatment prior to and during the experiment, 0.12 μM Ciglitazone/daily per mouse",significantly reduced
